The list shows a part of the results.
Key:
Assay in all cases: log2 fold change, soluble protein after heating vs DMSO (PISA); higher = thermal stabilisation; K562 lysate, 10 uM; active = over 0.2 and 3.5 SD of the protein, either way, in both replicates (recomputed)
[1] = compound: NCC(=O)Nc1ccc(-n2nc(C(F)(F)F)cc2-c2ccc3c(ccc4ccccc43)c2)cc1
How it was run: (§1)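 Soluble protein was defined as the supernatant remaining after 21,000xg for 90 min, following pooling of heated aliquots and adjustment to 0.5% NP-40 at 4°C. Before that, crude K562 extract at 1 mg/mL protein in PBS pH 7.4 with 1 mM MgCl2 was treated with 10 μM compound for 30 min and heated for 3 min across 48°C-58°C. Quantification used TMTpro 16plex LC-MS/MS with channel sums equalised, and values are log-two fold changes in thermal stability relative to solvent controls from duplicates.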

The chains behind the UniProt entries cited, without tags or fusion partners. Where a name states a change or a piece, a line headed by the entry shows the natural chain unless it says otherwise.
UniProt Q99871: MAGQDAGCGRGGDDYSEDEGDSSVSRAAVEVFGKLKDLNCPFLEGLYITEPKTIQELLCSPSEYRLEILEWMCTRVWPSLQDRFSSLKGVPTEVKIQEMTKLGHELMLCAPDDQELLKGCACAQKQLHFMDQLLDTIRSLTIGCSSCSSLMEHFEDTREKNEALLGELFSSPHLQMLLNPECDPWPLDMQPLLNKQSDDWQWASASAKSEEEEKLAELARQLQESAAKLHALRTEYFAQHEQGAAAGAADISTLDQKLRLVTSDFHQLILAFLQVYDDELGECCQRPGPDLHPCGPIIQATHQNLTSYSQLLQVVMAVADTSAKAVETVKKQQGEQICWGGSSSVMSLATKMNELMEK
UniProt P46976: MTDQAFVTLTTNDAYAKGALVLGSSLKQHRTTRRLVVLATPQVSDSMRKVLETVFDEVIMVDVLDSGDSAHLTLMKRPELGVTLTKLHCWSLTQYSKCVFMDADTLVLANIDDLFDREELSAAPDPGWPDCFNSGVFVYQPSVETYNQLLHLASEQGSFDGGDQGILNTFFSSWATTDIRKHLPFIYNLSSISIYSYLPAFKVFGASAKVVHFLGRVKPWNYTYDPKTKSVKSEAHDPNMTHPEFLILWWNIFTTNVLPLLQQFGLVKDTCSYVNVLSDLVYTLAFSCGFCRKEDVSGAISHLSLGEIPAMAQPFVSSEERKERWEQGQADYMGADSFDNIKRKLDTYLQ
UniProt Q9BT25: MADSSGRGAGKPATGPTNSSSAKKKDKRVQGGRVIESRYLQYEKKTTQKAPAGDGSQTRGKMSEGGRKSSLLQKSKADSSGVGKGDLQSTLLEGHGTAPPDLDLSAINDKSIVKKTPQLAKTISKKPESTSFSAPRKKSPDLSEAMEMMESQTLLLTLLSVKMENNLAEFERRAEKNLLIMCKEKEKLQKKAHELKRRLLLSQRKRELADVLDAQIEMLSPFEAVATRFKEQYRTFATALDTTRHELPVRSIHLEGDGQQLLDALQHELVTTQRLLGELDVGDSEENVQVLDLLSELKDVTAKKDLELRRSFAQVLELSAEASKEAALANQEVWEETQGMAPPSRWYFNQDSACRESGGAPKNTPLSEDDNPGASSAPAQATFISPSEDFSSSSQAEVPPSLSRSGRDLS
UniProt Q7Z4Q2: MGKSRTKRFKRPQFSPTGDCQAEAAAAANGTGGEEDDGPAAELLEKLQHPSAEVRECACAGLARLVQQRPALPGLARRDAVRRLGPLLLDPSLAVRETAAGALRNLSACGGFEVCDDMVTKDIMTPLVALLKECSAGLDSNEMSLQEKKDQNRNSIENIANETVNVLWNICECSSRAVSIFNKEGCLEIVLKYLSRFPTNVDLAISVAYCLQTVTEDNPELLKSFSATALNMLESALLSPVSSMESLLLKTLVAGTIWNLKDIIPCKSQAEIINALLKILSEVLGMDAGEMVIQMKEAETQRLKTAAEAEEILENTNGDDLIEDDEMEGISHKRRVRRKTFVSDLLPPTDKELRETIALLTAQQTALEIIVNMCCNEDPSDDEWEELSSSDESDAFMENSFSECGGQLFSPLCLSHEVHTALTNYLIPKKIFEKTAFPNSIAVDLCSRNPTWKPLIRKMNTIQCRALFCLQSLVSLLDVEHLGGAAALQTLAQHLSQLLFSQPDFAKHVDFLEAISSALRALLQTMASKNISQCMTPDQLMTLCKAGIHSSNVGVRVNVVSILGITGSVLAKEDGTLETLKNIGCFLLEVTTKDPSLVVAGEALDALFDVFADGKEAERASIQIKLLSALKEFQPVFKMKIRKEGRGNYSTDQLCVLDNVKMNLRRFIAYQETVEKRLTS
UniProt Q969F1: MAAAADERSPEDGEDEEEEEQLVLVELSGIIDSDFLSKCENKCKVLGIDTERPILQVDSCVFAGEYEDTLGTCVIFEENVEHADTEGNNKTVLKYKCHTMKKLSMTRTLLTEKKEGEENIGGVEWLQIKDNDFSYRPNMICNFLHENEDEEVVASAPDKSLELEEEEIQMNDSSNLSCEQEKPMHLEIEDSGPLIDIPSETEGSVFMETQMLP
UniProt P16403, whole entry, looked up: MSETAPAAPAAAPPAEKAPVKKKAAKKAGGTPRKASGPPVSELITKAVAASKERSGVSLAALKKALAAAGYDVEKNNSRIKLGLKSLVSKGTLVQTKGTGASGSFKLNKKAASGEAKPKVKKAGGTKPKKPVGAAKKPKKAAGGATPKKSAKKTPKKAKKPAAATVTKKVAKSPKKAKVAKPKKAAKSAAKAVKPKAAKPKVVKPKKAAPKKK
UniProt P02724: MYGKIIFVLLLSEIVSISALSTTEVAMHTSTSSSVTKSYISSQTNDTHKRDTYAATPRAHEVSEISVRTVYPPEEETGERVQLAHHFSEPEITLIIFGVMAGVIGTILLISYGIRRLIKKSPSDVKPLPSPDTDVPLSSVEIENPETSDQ
UniProt Q8WUI4: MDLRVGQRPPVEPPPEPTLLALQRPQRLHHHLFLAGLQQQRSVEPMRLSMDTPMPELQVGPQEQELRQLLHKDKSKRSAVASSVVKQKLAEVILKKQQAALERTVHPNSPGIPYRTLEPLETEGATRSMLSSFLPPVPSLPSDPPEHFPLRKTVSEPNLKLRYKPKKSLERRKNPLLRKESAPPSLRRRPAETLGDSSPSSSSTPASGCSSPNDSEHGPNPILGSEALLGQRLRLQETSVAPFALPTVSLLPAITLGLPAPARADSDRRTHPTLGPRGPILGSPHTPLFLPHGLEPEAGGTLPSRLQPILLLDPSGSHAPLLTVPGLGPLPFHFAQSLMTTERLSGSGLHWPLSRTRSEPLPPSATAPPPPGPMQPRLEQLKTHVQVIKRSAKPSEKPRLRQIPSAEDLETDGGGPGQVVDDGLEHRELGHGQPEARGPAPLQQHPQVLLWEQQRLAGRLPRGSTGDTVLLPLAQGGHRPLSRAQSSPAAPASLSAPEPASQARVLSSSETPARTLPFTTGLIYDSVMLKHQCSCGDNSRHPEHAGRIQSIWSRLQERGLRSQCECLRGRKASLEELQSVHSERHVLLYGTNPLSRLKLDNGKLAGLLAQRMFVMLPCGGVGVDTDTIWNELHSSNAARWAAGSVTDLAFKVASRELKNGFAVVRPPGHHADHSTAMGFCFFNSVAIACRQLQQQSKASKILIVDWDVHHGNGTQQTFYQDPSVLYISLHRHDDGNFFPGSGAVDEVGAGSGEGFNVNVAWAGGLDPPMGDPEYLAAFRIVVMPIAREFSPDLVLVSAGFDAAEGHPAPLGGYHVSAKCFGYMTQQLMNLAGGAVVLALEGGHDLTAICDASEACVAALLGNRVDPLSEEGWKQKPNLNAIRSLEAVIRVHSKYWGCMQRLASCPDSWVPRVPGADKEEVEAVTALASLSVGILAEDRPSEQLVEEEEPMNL
UniProt Q4ZG55: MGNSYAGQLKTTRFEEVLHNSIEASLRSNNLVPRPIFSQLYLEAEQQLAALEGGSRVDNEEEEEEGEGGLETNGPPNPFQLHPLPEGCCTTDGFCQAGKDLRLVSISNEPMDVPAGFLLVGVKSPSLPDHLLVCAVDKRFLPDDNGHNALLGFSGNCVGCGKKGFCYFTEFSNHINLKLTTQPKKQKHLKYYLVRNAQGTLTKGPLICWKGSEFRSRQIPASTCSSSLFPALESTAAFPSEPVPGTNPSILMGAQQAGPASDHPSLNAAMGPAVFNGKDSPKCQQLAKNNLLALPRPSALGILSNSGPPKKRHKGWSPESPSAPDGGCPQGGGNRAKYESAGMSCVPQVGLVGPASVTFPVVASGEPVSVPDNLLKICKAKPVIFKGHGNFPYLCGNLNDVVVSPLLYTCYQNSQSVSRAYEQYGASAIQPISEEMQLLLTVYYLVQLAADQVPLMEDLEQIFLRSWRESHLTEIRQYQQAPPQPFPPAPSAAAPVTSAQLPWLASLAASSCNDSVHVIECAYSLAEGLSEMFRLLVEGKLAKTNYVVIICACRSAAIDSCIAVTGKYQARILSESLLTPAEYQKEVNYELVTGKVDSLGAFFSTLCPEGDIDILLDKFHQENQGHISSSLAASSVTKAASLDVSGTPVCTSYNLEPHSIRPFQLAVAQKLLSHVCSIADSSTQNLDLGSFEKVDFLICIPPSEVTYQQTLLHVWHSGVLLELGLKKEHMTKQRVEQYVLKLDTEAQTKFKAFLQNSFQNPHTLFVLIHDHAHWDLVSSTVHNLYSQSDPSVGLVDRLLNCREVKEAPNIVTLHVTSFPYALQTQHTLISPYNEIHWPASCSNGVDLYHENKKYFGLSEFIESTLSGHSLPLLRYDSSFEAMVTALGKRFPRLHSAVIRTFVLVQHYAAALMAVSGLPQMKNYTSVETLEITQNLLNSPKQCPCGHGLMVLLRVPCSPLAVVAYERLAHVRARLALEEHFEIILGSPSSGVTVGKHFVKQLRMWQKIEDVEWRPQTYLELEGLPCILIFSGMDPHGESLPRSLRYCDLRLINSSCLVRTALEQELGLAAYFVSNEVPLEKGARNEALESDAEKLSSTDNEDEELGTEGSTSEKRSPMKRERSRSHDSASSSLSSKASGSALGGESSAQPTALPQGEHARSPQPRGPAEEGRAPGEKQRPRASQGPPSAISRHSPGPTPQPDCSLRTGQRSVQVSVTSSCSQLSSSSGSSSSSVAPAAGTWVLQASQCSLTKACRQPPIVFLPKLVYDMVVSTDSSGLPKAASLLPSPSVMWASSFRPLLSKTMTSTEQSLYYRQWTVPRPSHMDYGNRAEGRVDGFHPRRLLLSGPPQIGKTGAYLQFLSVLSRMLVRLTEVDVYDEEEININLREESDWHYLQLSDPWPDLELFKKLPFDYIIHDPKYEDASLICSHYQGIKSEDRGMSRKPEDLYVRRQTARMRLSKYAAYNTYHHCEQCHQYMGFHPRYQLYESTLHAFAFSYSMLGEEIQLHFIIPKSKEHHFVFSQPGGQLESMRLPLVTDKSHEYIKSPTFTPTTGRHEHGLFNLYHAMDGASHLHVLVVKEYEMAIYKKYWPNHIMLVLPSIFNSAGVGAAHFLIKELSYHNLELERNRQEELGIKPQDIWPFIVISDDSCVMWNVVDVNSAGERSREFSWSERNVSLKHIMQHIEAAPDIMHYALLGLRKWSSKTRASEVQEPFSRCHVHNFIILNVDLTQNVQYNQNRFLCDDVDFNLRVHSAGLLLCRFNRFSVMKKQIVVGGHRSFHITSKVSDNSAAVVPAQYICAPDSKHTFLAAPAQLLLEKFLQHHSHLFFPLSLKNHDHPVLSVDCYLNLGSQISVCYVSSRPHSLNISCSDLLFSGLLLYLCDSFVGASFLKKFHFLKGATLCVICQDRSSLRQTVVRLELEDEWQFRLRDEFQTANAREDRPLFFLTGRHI
UniProt A4D1E9: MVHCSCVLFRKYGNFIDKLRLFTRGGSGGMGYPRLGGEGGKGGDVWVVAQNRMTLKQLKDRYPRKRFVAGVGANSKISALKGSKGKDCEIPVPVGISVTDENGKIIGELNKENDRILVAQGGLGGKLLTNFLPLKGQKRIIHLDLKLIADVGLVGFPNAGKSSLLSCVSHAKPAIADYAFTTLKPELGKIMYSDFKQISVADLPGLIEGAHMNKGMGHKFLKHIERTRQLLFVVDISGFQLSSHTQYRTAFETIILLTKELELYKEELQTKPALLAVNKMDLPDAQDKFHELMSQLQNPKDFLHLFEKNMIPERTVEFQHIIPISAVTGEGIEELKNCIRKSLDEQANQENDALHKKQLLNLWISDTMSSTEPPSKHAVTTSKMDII
UniProt P51858: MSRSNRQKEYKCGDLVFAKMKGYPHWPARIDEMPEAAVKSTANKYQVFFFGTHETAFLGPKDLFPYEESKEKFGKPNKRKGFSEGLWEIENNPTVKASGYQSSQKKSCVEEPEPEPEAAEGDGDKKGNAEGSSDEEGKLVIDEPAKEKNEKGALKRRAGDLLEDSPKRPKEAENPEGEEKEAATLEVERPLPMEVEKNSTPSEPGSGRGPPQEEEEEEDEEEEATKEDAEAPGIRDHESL
UniProt Q9P035: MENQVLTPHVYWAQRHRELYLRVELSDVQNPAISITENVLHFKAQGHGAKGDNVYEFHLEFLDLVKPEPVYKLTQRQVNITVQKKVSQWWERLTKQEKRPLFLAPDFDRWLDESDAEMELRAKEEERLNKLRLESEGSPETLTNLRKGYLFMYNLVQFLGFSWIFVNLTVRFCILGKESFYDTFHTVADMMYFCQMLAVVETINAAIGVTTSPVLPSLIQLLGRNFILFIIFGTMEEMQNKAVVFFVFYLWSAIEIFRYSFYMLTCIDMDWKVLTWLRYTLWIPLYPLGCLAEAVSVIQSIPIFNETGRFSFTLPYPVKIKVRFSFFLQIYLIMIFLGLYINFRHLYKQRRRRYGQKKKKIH
UniProt Q00403, whole entry, looked up: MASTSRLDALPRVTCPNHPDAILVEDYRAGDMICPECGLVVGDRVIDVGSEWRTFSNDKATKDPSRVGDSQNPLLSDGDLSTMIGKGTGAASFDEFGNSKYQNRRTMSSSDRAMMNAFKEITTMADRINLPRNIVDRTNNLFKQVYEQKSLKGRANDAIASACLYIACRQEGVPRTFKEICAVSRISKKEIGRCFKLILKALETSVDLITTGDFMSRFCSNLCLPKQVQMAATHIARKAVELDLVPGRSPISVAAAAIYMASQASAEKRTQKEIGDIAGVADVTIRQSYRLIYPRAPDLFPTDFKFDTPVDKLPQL

vorinostat = compound: O=C(CCCCCCC(=O)Nc1ccccc1)NO [vorinostat]
How it was run: as §1

silmitasertib = compound: O=C(O)c1ccc2c(c1)nc(Nc1cccc(Cl)c1)c1ccncc12 [silmitasertib]
How it was run: as §1

[2] = compound: O=C1NC(=O)C(c2cnc3ccccn23)=C1c1cn2c3c(cc(F)cc13)CN(C(=O)N1CCCCC1)CC2
How it was run: as §1

entospletinib = compound: c1cn2cc(-c3ccc4cn[nH]c4c3)nc(Nc3ccc(N4CCOCC4)cc3)c2n1 [entospletinib]
How it was run: as §1

Target | log2 fold change [1] | log2 fold change (vorinostat) | log2 fold change (silmitasertib) | log2 fold change [2] | log2 fold change (entospletinib)
HAUS7 isoform 2 (UniProt Q99871) | inactive: -0.091 | active: -0.416 | inactive: -0.029 | inactive: -0.026 | inactive: -0.124
GSTCD (UniProt Q8NEC7) | inactive: -0.025 | active: -0.356 | inactive: 0.024 | inactive: -0.027 | inactive: -0.066
GTF3C4 (UniProt Q9UKN8) | inactive: -0.011 | inactive: -0.043 | inactive: 0.016 | inactive: -0.023 | inactive: 0
GTPBP4 (UniProt Q9BZE4) | inactive: -0.008 | inactive: -0.004 | inactive: 0.018 | inactive: -0.003 | inactive: 0.016
GYG1 isoform 2 (UniProt P46976) | inactive: -0.161 | inactive: 0.093 | inactive: 0.25 | inactive: -0.094 | inactive: 0.056
HAUS8 (UniProt Q9BT25) | inactive: 0.083 | active: -0.38 | inactive: 0.022 | inactive: 0.018 | inactive: -0.051
GUSB (UniProt P08236) | inactive: 0.021 | inactive: 0.043 | inactive: 0.015 | inactive: -0.026 | inactive: -0.029
HEATR3 (UniProt Q7Z4Q2) | inactive: -0.03 | active: -0.5 | inactive: 0.013 | inactive: -0.017 | inactive: -0.006
GTF3C6 (UniProt Q969F1) | inactive: -0.035 | inactive: -0.134 | inactive: -0.005 | inactive: 0.005 | inactive: -0.062
H1-2 (UniProt P16403) | inactive: 0.039 | inactive: 0.111 | inactive: -0.037 | inactive: 0.037 | inactive: 0.018
HDGFL2 isoform 2 (UniProt Q7Z4V5) | inactive: 0.02 | inactive: 0.117 | inactive: -0.013 | inactive: 0.01 | inactive: -0.012
GSE1 (UniProt Q14687) | inactive: 0.029 | active: -0.286 | inactive: -0.006 | inactive: -0.006 | inactive: -0.017
GYPA (UniProt P02724) | inactive: -0.028 | inactive: 0.152 | inactive: -0.097 | inactive: -0.04 | inactive: 0.019
HDAC7 isoform 5 (UniProt Q8WUI4) | inactive: -0.007 | inactive: -0.016 | inactive: -0.059 | inactive: 0 | inactive: 0.022
GTF2I (UniProt P78347) | inactive: -0.001 | active: -0.287 | inactive: 0.091 | inactive: -0.005 | inactive: -0.017
GREB1 (UniProt Q4ZG55) | inactive: 0.238 | inactive: 0.137 | inactive: -0.069 | inactive: 0.454 | inactive: 0.001
GTPBP10 (UniProt A4D1E9) | inactive: 0.02 | inactive: -0.085 | inactive: 0.138 | inactive: -0.021 | inactive: 0.028
H3-3A (UniProt P84243) | inactive: 0.021 | inactive: -0.077 | inactive: 0 | inactive: 0.026 | inactive: -0.035
HBS1L (UniProt Q9Y450) | inactive: -0.008 | inactive: -0.212 | inactive: 0.038 | inactive: -0.005 | inactive: 0.028
GSK3A (UniProt P49840) | inactive: -0.019 | inactive: 0.265 | inactive: 0.382 | inactive: 0.456 | inactive: 0.014
HDGF (UniProt P51858) | inactive: 0.024 | inactive: 0.106 | inactive: -0.018 | inactive: -0.02 | inactive: -0.01
HACD3 (UniProt Q9P035) | inactive: -0.006 | inactive: 0.109 | inactive: 0.003 | inactive: -0.003 | inactive: 0.01
GTPBP3 isoform 2 (UniProt Q969Y2) | inactive: -0.105 | inactive: -0.042 | inactive: -0.029 | inactive: 0.048 | inactive: -0.074
GTF2B (UniProt Q00403) | inactive: 0.011 | inactive: -0.071 | inactive: 0.044 | inactive: -0.007 | inactive: -0.005

Five entries from above, as a markdown table.

| Target | log2 fold change [1] | log2 fold change (vorinostat) | log2 fold change (silmitasertib) | log2 fold change [2] | log2 fold change (entospletinib) |
| --- | --- | --- | --- | --- | --- |
| GTPBP10 (UniProt A4D1E9) | inactive: 0.02 | inactive: -0.085 | inactive: 0.138 | inactive: -0.021 | inactive: 0.028 |
| H3-3A (UniProt P84243) | inactive: 0.021 | inactive: -0.077 | inactive: 0 | inactive: 0.026 | inactive: -0.035 |
| HBS1L (UniProt Q9Y450) | inactive: -0.008 | inactive: -0.212 | inactive: 0.038 | inactive: -0.005 | inactive: 0.028 |
| GSK3A (UniProt P49840) | inactive: -0.019 | inactive: 0.265 | inactive: 0.382 | inactive: 0.456 | inactive: 0.014 |
| HDGF (UniProt P51858) | inactive: 0.024 | inactive: 0.106 | inactive: -0.018 | inactive: -0.02 | inactive: -0.01 |

From the supplement of paper PMC10849652
